# This list was built around the results that the source calls inconclusive (neither active nor inactive); the mix of calls is not that of the screen. A potency beside an inconclusive call is a rough fit, not a confirmed value. Calls of active or inactive are those of the source. How the source made its calls: active means hit-call score of the fitted dose curve at least 0.9, where 1 is the maximum; inconclusive means response in the unintended direction; inactive means score below 0.9.
# System: not listed separately
# Assay: STM_H9_OrnCyssISnorm_ratio: Stemina devTOX quickPredict H9 human embryonic stem cell (hESC)-based Assay for Ornithine (ORN):Cystine (CYSS) Ratio (AID 2283714)
# How it was run: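 Steps: H9 hESCs in pluripotent state dosed 72h, medium plus compound renewed every 24h; conditioned medium from the final 24h deproteinized in 40% acetonitrile; ORN and CYSS quantified by UPLC-HRMS with C13 spike-ins; ratio relative to vehicle.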
Structure (SMILES),AC50,outcome
O=C(O)C1C(C(=O)O)C2(Cl)C(Cl)=C(Cl)C1(Cl)C2(Cl)Cl (configuration not stated),inconclusive: 50 µM,–
CNC(=O)Oc1cccc2c1OC(C)(C)C2,–,inactive
ClC1=C(Cl)[C@]2(Cl)[C@@H]3[C@@H]4C[C@@H]([C@H]5O[C@@H]45)[C@@H]3[C@@]1(Cl)C2(Cl)Cl,inconclusive: 5 µM,–
Cn1cc(-c2ccccc2)c(=O)c(-c2cccc(C(F)(F)F)c2)c1,–,inactive
Nc1ccc2ccccc2c1,–,inactive
O=C(O)C(Cl)(Cl)Cl,inconclusive: 50 µM,–
COc1cc(C=O)cc2c1[C@H](COC(N)=O)[C@]1(OC(C)=O)ON2C[C@H]2[C@@H]1N2C(C)=O,active: 0.000797 µM,–
OCCCBr,–,inactive
O=[N+]([O-])c1ccc(Oc2ccc(Cl)cc2Cl)cc1,active: 50 µM,–
CC1(C)C(C=C(Cl)Cl)C1C(=O)OC(C#N)c1ccc(F)c(Oc2ccccc2)c1 (configuration not stated),inconclusive: 5.59 µM,–
O=C1C(Cl)=C(Cl)C(=O)C(Cl)=C1Cl,–,inactive
ClCC(Cl)CCl,–,inactive
COc1cc(OC)nc(NC(=O)NS(=O)(=O)c2ncccc2OCC(F)(F)F)n1,inconclusive: 4.96 µM,–
Cc1ccc(N)cc1N,active: 65.8 µM,–
Cc1ccn2nc(S(=O)(=O)Nc3c(F)cccc3F)nc2n1,inconclusive: 0.0016 µM,–
Clc1ccc(Cl)c(Cl)c1,inconclusive: 0.003 µM,–
CCOc1nc(F)cc2nc(S(=O)(=O)Nc3c(Cl)cccc3Cl)nn12,inconclusive: 0.025 µM,–
O=C1CCCO1,inconclusive: 3.7 µM,–
CCC1(c2ccccc2)C(=O)N=C(O)NC1=O (configuration not stated),–,inactive
CO/C=C(/C(=O)OC)c1ccccc1COc1cccc(C(F)(F)F)n1,–,inactive
CCCCCCCCOC(=O)c1ccccc1C(=O)OCCCCCCCC,–,inactive
Brc1ccc(Oc2ccccc2)cc1,–,inactive
CC(C)(C)C(O)(CCc1ccc(Cl)cc1)Cn1cncn1 (configuration not stated),active: 45 µM,–
ClC1=C(Cl)[C@]2(Cl)[C@H]3[C@H]([C@@H]4C=C[C@H]3C4)[C@@]1(Cl)C2(Cl)Cl,inconclusive: 5 µM,–
Oc1ccc(C(c2ccc(O)cc2)(C(F)(F)F)C(F)(F)F)cc1,inconclusive: 5 µM,–
CON(C)C(=O)Nc1ccc(Cl)c(Cl)c1,active: 71.7 µM,–
C=CC1(C)OC(=O)N(c2cc(Cl)cc(Cl)c2)C1=O (configuration not stated),–,inactive
O=[N+]([O-])c1ccccc1,inconclusive: 17.2 µM,–
O=C1C2(Cl)C3(Cl)C4(Cl)C(Cl)(Cl)C5(Cl)C3(Cl)C1(Cl)C5(Cl)C24Cl (configuration not stated),inconclusive: 1.96 µM,–

# System: Thyroperoxidase (TPO), gene 445522
# Assay: CCTE_Simmons_GUA_TPO: CCTE's Guaiacol Assay for Thyroperoxidase (TPO) Inhibition, Simmons Lab (AID 2283750)
# How it was run: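 Porcine thyroid microsomes (25 ug) in 200mM potassium phosphate, preincubated 30 s at 37C with compound (8 concentrations, 5 nM–87.5 uM) and 35mM guaiacol; 1mM H2O2 starts reaction. Absorbance change at 450nm over first 80 s; loss of signal versus DMSO, three replicates.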
Structure (SMILES),outcome,AC50
COP(=S)(OC)Oc1ccc([N+](=O)[O-])cc1,inactive,–
CCC(C)c1ccc(O)cc1 (configuration not stated),–,inconclusive: 250 µM
CCOP(=S)(OCC)SCSP(=S)(OCC)OCC,–,inconclusive: 250 µM
CCCCCCCCOC(=O)c1ccccc1C(=O)OCCCCCCCC,–,inconclusive: 250 µM
CCOP(=S)(Oc1ccc([N+](=O)[O-])cc1)c1ccccc1 (configuration not stated),–,inconclusive: 23.7 µM

# System: not listed separately
# Assay: ArunA_CellTiter_hNC: Viability Assessment in the ArunA Biomedical's Oris Neural Crest (hNC) Cell Migration Assay (AID 2283752)
# How it was run: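 Viability of embryonic neural crest stem cells from the H9 line is scored 72 h after dosing, with DMSO as negative control and baseline. A drop in CellTiter Aqueous One signal indicates cytotoxicity.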
Structure (SMILES),AC50,outcome
ClC1(Cl)C2(Cl)C3(Cl)C4(Cl)C(Cl)(Cl)C5(Cl)C3(Cl)C1(Cl)C5(Cl)C24Cl (configuration not stated),inconclusive: 0.5 µM,–
Oc1cc(Cl)ccc1Oc1ccc(Cl)cc1Cl,–,inactive
CC(C)(C)c1cc(O)ccc1O,inconclusive: 37 µM,–
Oc1ccc2ccc3cccc4ccc1c2c34,active: 14.7 µM,–

# System: not listed separately
# Assay: ArunA_CellTiter_hNP: Viability Assessment in the ArunA Biomedical's Oris Neural Crest (hNC) Cell Migration Assay (AID 2283753)
# How it was run: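 H9-derived hNP1 neuroprogenitors, 60,000/well on Matrigel, cultured 16 h, then 72 h chemical exposure in test medium. Cell titer via CellTiter Aqueous One; positive-direction fit vs DMSO.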
Structure (SMILES),AC50,outcome
O=C(O)C1C(C(=O)O)C2(Cl)C(Cl)=C(Cl)C1(Cl)C2(Cl)Cl (configuration not stated),inconclusive: 50 µM,–
CC(C)(C)c1cc(O)ccc1O,inconclusive: 0.836 µM,–
ClCC(Cl)CCl,inconclusive: 7.54 µM,–
Cc1ccc(N)cc1N,inconclusive: 0.361 µM,–
CC(C)(C)c1ccc(CSc2cnn(C(C)(C)C)c(=O)c2Cl)cc1,–,inactive
Clc1ccc(Cl)c(Cl)c1,inconclusive: 2.32 µM,–

# System: not listed separately
# Assay: ArunA_Migration_hNC: ArunA Biomedical's Oris Neural Crest (hNC) Cell Migration Assay (AID 2283755)
# How it was run: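 Human H9-derived neural crest stem cells, 60,000/well on Matrigel, 16 h at 37C, then 72 h chemical exposure after seeding-stopper removal. Migration into detection zone read as calcein-AM fluorescence (ex494/em517), relative to DMSO.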
row,Structure (SMILES),AC50
1,ClC1(Cl)C2(Cl)C3(Cl)C4(Cl)C(Cl)(Cl)C5(Cl)C3(Cl)C1(Cl)C5(Cl)C24Cl (configuration not stated),inconclusive: 1.26 nM
2,ClCC(Cl)CCl,inconclusive: 120 nM
3,Clc1ccc(Cl)c(Cl)c1,inconclusive: 3880 nM

# From PubChem BioAssay (EPA / NIEHS)
